Results are given in words; binding and its absence hold for the method and conditions named. Binding seen in cells or lysates may run through a third protein. A result given as binding can be weak or reduced; the word gives no strength. Tags and fused reporters may be left off the sequences shown.
Key:
[1] = target: GST-Cdc4ΔF (budding yeast); experiment: pull-down; GST fusions pulled down on glutathione-sepharose 4B from lysates of grr1Δ cdc4-1 yeast expressing Myc-tagged Cln3 proteins; galactose induction 20-22 hours; HEPES lysis buffer pH 7.6, 400 mM NaCl, 0.2% Triton X-100, 4°C, 2 hours, seven washes; Myc and GST Western blots
[2] = target: GST-Grr1ΔF (budding yeast); experiment: as above
[3] = target: GST-Cdc4ΔF (budding yeast); experiment: pull-down; GST fusions pulled down on glutathione-sepharose 4B from lysates of grr1Δ yeast expressing Myc-tagged Cln1 or Cln2 proteins; galactose induction 8 hours; HEPES lysis buffer pH 7.6, 400 mM NaCl, 0.2% Triton X-100, 4°C, 2 hours, seven washes; Myc and GST Western blots
[4] = target: GST-Grr1ΔF (budding yeast); experiment: as above

binding [1] | binding [2] | binding [3] | binding [4] | Binder
binds | binds |  |  | Cln3-13Myc (protein, UniProt P13365 1-580) MAILKDTIIRYANARYATASGTSTATAASVSAASCPNLPLLLQKRRAIASAKSKNPNLVKRELQAHHSAISEYNNDQLDHYFRLSHTERPLYNLTNFNSQPQVNPKMRFLIFDFIMYCHTRLNLSTSTLFLTFTILDKYSSRFIIKSYNYQLLSLTALWISSKFWDSKNRMATLKVLQNLCCNQYSIKQFTTMEMHLFKSLDWSICQSATFDSYIDIFLFQSTSPLSPGVVLSAPLEAFIQQKLALLNNAAGTAINKSSSSQGPSLNINEIKLGAIMLCELASFNLELSFKYDRSLIALGAINLIKLSLNYYNSNLWENINLALEENCQDLDIKLSEISNTLLDIAMDQNSFPSSFKSKYLNSNKTSLAKSLLDALQNYCIQLKLEEFYRSQELETMYNTIFAQSFDSDSLTCVYSNATTPKSATVSSAATDYFSDHTHLRRLTKDSISPPFAFTPTSSSSSPSPFNSPYKTSSSMTTPDSASHHSHSGSFSSTQNSFKRSLSIPQNSSIFWPSPLTPTTPSLMSNRKLLQNLSVRSKRLFPVRPMATAHPCSAPTQLKKRSTSSVDCDFNDSSNLKKTR
 |  | binds | binds | Cln2-13Myc (protein, UniProt P20438 1-545) MASAEPRPRMGLVINAKPDYYPIELSNAELLSHFEMLQEYHQEISTNVIAQSCKFKPNPKLIDQQPEMNPVETRSNIITFLFELSVVTRVTNGIFFHSVRLYDRYCSKRIVLRDQAKLVVATCLWLAAKTWGGCNHIINNVVIPTGGRFYGPNPRARIPRLSELVHYCGDGQVFDESMFLQMERHILDTLNWNIYEPMINDYVLNVDENCLMQYELYENQVTYDKQCSEKRQSQLSQDSDATVDERPYQNEEEEEEDLKLKIKLINLKKFLIDVSAWQYDLLRYELFEVSHGIFSIINQFTNQDHGPFLMTPMTSESKNGEILSTLMNGIVSIPNSLMEVYKTVNGVLPFINQVKEYHLDLQRKLQIASNLNISRKLTISTPSCSFENSNSTSIPSPASSSQSHTPMRNMSSLSDNSVFSRNMEQSSPITPSMYQFGQQQSNSICGSTVSVNSLVNTNNKQRIYEQITGPNSNNATNDYIDLLNLNESNKENQNPATAHYLNGGPPKTSFINHGMFPSPTGTINSGKSSSASSLISFGMGNTQVI
 |  | binds | binds | Cln1-13Myc (protein, UniProt P20437 1-546) MNHSEVKTGLIVTAKQTYYPIELSNAELLTHYETIQEYHEEISQNVLVQSSKTKPDIKLIDQQPEMNPHQTREAIVTFLYQLSVMTRVSNGIFFHAVRFYDRYCSKRVVLKDQAKLVVGTCLWLAAKTWGGCNHIINNVSIPTGGRFYGPNPRARIPRLSELVHYCGGSDLFDESMFIQMERHILDTLNWDVYEPMINDYILNVDENCLIQYELYKNQLQNNNSNGKEWSCKRKSQSSDDSDATVEEHISSSPQSTGLDGDTTTMDEDEELNSKIKLINLKRFLIDLSCWQYNLLKFELYEICNGMFSIINKFTNQDQGPFLSMPIGNDINSNTQTQVFSIIINGIVNSPPSLVEVYKEQYGIVPFILQVKDYNLELQKKLQLASTIDLTRKIAVNSRYFDQNASSSSVSSPSTYSSGTNYTPMRNFSAQSDNSVFSTTNIDHSSPITPHMYTFNQFKNESACDSAISVSSLPNQTQNGNMPLSSNYQNMMLEERNKENRIPNSSSAEIPQRAKFMTTGIFQNTGELTNRASSISLSLRNHNSSQL
 | binds |  |  | Cln3Δ22-13Myc (domain or fragment, UniProt P13365 1-558) MAILKDTIIRYANARYATASGTSTATAASVSAASCPNLPLLLQKRRAIASAKSKNPNLVKRELQAHHSAISEYNNDQLDHYFRLSHTERPLYNLTNFNSQPQVNPKMRFLIFDFIMYCHTRLNLSTSTLFLTFTILDKYSSRFIIKSYNYQLLSLTALWISSKFWDSKNRMATLKVLQNLCCNQYSIKQFTTMEMHLFKSLDWSICQSATFDSYIDIFLFQSTSPLSPGVVLSAPLEAFIQQKLALLNNAAGTAINKSSSSQGPSLNINEIKLGAIMLCELASFNLELSFKYDRSLIALGAINLIKLSLNYYNSNLWENINLALEENCQDLDIKLSEISNTLLDIAMDQNSFPSSFKSKYLNSNKTSLAKSLLDALQNYCIQLKLEEFYRSQELETMYNTIFAQSFDSDSLTCVYSNATTPKSATVSSAATDYFSDHTHLRRLTKDSISPPFAFTPTSSSSSPSPFNSPYKTSSSMTTPDSASHHSHSGSFSSTQNSFKRSLSIPQNSSIFWPSPLTPTTPSLMSNRKLLQNLSVRSKRLFPVRPMATAHPCSAPTQL

Reference: paper PMC3405998
